This passage reports cell viability results from the supplement of paper PMC3682954.

Each structure is given as a SMILES string. Where “and” joins values, the source holds several entries; their conditions need not be identical. Equal values may be shown once. Where a name gives a salt, the structure may show the parent alone. ± gives the standard deviation of the averaged measurements. The list shows a part of the results. Repeats are few or missing, and single values can be far off.

The assay deals with RAW 264.7. As to the kind of experiment: cell viability (MTT) relative to vehicle control; higher = more viable cells. The following applies: stimulus: HMGB1 5 ug/ml, 18 h.
Setting [1] is: compound concentration: 1 ug/ml.

As for `Cc1ccc(S(=O)(=O)NC(=O)NN2CCCCCC2)cc1`, the cell viability (compound concentration: 3 uM) worked out at 102%.
Same read-out and setting: under `Cc1ccc(S(=O)(=O)NC(=O)NN2CCCCCC2)cc1` [Tolazamide] stands 101 ± 18%.
In the case of `COc1cccc(OC)c1C(=O)N[C@@H]1C(=O)N2[C@@H]1SC(C)(C)[C@@H]2C(=O)O`, under “compound concentration: 3 uM”, the cell viability worked out at 113%.
Turning to `C[C@]12CC[C@@H]3c4ccc(OS(=O)(=O)O)cc4CC[C@H]3[C@@H]1CCC2=O` [Estropipate], the cell viability (compound concentration: 3 uM) was 106%.
As to `C[C@]12CC[C@@H]3c4ccc(OS(=O)(=O)O)cc4CC[C@H]3[C@@H]1CCC2=O`, the cell viability (compound concentration: 3 uM) was 104% and 101%.
For the compound `C=CCn1c(=O)c2c(nc(-c3ccc(S(=O)(=O)O)cc3)n2C)n(C)c1=O` [1-Allyl-3,7-dimethyl-8-p-sulfophenylxanthine], for the setting “compound concentration: 3 uM”, the cell viability came to 115%.
Same read-out and setting: under `CO[C@H](C(=O)[C@@H](O)[C@@H](C)O)[C@@H]1Cc2cc3cc(O[C@H]4C[C@@H](O[C@@H]5C[C@@H](O)[C@H](O)[C@@H](C)O5)[C@H](O)[C@@H](C)O4)c(C)c(O)c3c(O)c2C(=O)[C@H]1O[C@H]1C[C@@H](O[C@@H]2C[C@@H](O)[C@@H](O[C@@H]3C[C@](C)(O)[C@H](O)[C@@H](C)O3)[C@@H](C)O2)[C@H](O)[C@@H](C)O1` [Plicamycin] stands 67.3%; under `CCCCNc1c(C(=O)OCC)c(C)nc2c1cnn2CC` [Tracazolate hydrochloride], 92.6%; under `CCCCNc1c(C(=O)OCC)c(C)nc2c1cnn2CC` [Tracazolate], 106%.
Turning to `O=C(O)c1cc2cc3c4c(c2oc1=O)CCCN4CCC3` [Coumarin 343], the cell viability under setting [1] turned out to be 105%.
In the case of `COc1cc(NC(C)CCCN)c2ncccc2c1` (configuration not stated) [Primaquine], the cell viability (compound concentration: 3 uM) was 96%.
On the same count and under the same terms, under `COc1cc(NC(C)CCCN)c2ncccc2c1` (configuration not stated) stands 101%.
In the case of `COc1cc(NC(C)CCCN)c2ncccc2c1` (configuration not stated) [Primaquine diphosphate], where the note is “compound concentration: 3 uM”, the cell viability was 130%.
Regarding `CCCCC1(COC(=O)CCC(=O)O)C(=O)N(c2ccccc2)N(c2ccccc2)C1=O`, the cell viability (compound concentration: 3 uM) was 105%.
`CCCCC1(COC(=O)CCC(=O)O)C(=O)N(c2ccccc2)N(c2ccccc2)C1=O` [Suxibuzone]: the cell viability (compound concentration: 3 uM) is 109%.
On the same count and under the same terms, the result for `COc1cc(-c2ccc(=O)[nH]n2)ccc1OC(F)F` [Zardaverine] reads 101 ± 8.6%.
For `COc1cc(-c2ccc(=O)[nH]n2)ccc1OC(F)F`, the cell viability (compound concentration: 3 uM) was 92.5% and 112%.
For the compound `CC[N+](CC)(CC)CC(=O)Nc1c(C)cccc1C` [Lidocaine N-ethyl bromide quaternary salt], the cell viability (compound concentration: 3 uM) turned out to be 98.1%.
On the same count and under the same terms, the result for `Cc1cc(-c2ccccc2)nnc1NCCN1CCOCC1` reads 113%.
Regarding `Cc1cc(-c2ccccc2)nnc1NCCN1CCOCC1` [Minaprine dihydrochloride], the cell viability (compound concentration: 3 uM) was found to be 88.8%.
Take `Cc1cc(=O)oc2ccc(O)cc12` [6-Hydroxy-4-methyl-2-benzopyrone]: the cell viability under setting [1] is 84.5%.
For the compound `NC(N)=Nc1nc(CSCC/C(N)=N/S(N)(=O)=O)cs1` [Famotidine], where the note is “compound concentration: 3 uM”, the cell viability came to 99.5 ± 8.4%.
For `NC(N)=Nc1nc(CSCC/C(N)=N/S(N)(=O)=O)cs1`, for the setting “compound concentration: 3 uM”, the cell viability is 107 ± 14%.
As for `CSc1ccc2c(c1)N(CCC1CCCCN1C)c1ccccc1S2` (configuration not stated) [Thioridazine hydrochloride], the cell viability (compound concentration: 3 uM) was determined as 112 ± 1.4%.
Same read-out and setting: the result for `CSc1ccc2c(c1)N(CCC1CCCCN1C)c1ccccc1S2` (configuration not stated) [Thioridazine] reads 103%; that for `CSc1ccc2c(c1)N(CCC1CCCCN1C)c1ccccc1S2` (configuration not stated), 101%; that for `CC(C)(Sc1ccc(CCN(CCCCC2CCCCC2)C(=O)NC2CCCCC2)cc1)C(=O)O`, 94.4%.
`NC1C=CC=C(C(=O)O)C1` (configuration not stated) [Gabaculine hydrochloride]: the cell viability (compound concentration: 3 uM) was determined as 107%.
Turning to `CC/C(=C(/CC)c1ccc(O)cc1)c1ccc(O)cc1` [Diethylstilbestrol], the cell viability (compound concentration: 3 uM) is 110 ± 24%.
With `CC/C(=C(/CC)c1ccc(O)cc1)c1ccc(O)cc1`, under “compound concentration: 3 uM”, the cell viability amounted to 99.6%.
Still for that read-out and setting: the result for `CC1=C(/C=C/C(C)=C/C=C/C(C)=C\C(=O)O)C(C)(C)CCC1` [Isotretinoin] reads 111%; that for `CC1=C(/C=C/C(C)=C/C=C/C(C)=C\C(=O)O)C(C)(C)CCC1`, 115%.
For the compound `CC1=C(/C=C/C(C)=C/C=C/C(C)=C\C(=O)O)C(C)(C)CCC1` [13-cis-retinoic acid], the cell viability (compound concentration: 3 uM) is 125%.
Still for that read-out and setting: under `Nc1nc(OCc2ccccc2)c2nc[nH]c2n1` [O6-benzylguanine] stands 101%.
For the compound `OC(CN1CCN(c2cccc(Cl)c2)CC1)C(c1ccccc1)c1ccccc1` (configuration not stated), the cell viability (compound concentration: 3 uM) came to 93.8%.
The same measure, in the same setting: under `CN(C)[C@@H]1C(O)=C(C(N)=O)C(=O)[C@@]2(O)C(O)=C3C(=O)c4c(O)cccc4[C@@](C)(O)[C@H]3[C@H](O)[C@@H]12` stands 112%; under `CN(C)[C@@H]1C(O)=C(C(N)=O)C(=O)[C@@]2(O)C(O)=C3C(=O)c4c(O)cccc4[C@@](C)(O)[C@H]3[C@H](O)[C@@H]12` [Oxytetracycline dihydrate], 86.5%.
